The other results are listed elsewhere or left out.
Key:
Experiment in all cases: log2 fold change, soluble protein after heating vs DMSO (PISA); higher = thermal stabilisation; K562 cells, 10 uM, 30 min; active = over 0.2 and 3.5 SD of the protein, either way, in both replicates (recomputed)
[1] = compound: CC1=C(C=C(C=C1)NC(=O)C2=CC(=CC=C2)C(C)(C)C#N)NC3=CC4=C(C=C3)N=CN(C4=O)C
Summary of the method: (§1)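 K562 cells at 2×10^6 cells/mL were exposed to 10 μM compound for 30 min, then aliquots were heated for 3 min across 48°C-58°C, pooled, and extracted in PBS containing 0.5% NP-40 at 4°C. The supernatant after 21,000xg for 90 min was taken as soluble protein and measured by TMTpro 16plex LC-MS/MS with channel sums equalised. Thermal stability is reported relative to control samples, with values from duplicates. Fold changes are given on a log2 scale.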

By UniProt entry, the sequences of proteins in these tests, tags left out. Where a name states a change or a piece, a line headed by the entry shows the natural chain unless it says otherwise.
UniProt Q99807: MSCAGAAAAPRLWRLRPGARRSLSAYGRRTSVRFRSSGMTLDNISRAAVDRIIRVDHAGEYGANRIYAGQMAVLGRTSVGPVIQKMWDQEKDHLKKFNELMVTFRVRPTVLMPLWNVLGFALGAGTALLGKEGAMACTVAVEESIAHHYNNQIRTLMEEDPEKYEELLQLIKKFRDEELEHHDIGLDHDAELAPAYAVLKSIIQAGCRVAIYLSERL
UniProt Q10570: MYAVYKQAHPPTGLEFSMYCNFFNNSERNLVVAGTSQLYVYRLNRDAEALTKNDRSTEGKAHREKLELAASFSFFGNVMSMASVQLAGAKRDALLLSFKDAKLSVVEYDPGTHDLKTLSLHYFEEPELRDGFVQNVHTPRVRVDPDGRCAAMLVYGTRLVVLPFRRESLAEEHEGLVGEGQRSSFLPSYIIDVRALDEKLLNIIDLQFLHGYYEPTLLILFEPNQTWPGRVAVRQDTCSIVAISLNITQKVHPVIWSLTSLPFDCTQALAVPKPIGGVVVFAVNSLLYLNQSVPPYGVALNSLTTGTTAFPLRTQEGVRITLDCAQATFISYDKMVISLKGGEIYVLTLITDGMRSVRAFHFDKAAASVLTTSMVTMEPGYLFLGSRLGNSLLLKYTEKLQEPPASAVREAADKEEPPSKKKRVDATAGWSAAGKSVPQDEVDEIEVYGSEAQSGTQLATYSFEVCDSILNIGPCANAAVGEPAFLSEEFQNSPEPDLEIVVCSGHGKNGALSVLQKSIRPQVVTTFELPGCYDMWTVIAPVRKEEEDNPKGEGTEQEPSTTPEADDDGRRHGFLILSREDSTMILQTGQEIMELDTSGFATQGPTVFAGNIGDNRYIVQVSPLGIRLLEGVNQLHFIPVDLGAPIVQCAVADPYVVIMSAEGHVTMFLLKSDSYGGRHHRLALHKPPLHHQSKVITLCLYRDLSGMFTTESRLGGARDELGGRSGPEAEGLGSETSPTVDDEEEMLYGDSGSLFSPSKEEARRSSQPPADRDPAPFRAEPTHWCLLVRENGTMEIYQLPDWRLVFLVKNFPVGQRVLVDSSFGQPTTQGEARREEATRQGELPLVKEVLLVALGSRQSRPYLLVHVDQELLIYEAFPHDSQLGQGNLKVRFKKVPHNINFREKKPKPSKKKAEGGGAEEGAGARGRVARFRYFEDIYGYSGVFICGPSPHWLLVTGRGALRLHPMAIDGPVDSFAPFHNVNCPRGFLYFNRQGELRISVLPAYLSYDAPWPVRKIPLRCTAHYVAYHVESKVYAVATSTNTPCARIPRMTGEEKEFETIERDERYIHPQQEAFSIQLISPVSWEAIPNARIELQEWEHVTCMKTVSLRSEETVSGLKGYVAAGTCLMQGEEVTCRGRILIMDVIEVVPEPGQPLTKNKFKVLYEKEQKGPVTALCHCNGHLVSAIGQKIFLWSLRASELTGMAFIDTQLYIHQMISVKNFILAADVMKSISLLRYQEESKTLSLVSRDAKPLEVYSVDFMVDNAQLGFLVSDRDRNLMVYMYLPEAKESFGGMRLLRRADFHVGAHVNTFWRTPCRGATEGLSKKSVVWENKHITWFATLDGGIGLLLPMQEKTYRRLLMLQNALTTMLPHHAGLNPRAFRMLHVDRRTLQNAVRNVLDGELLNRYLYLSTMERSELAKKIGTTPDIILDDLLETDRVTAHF
UniProt P16220: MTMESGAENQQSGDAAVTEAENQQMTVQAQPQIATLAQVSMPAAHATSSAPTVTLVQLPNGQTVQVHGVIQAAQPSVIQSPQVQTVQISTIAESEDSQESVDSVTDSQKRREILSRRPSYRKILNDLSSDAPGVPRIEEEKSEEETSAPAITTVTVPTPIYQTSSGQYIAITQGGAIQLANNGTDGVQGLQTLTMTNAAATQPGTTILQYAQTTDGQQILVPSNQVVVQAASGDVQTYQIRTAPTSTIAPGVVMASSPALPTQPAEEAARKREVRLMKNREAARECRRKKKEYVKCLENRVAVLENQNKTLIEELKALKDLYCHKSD
UniProt Q9Y678: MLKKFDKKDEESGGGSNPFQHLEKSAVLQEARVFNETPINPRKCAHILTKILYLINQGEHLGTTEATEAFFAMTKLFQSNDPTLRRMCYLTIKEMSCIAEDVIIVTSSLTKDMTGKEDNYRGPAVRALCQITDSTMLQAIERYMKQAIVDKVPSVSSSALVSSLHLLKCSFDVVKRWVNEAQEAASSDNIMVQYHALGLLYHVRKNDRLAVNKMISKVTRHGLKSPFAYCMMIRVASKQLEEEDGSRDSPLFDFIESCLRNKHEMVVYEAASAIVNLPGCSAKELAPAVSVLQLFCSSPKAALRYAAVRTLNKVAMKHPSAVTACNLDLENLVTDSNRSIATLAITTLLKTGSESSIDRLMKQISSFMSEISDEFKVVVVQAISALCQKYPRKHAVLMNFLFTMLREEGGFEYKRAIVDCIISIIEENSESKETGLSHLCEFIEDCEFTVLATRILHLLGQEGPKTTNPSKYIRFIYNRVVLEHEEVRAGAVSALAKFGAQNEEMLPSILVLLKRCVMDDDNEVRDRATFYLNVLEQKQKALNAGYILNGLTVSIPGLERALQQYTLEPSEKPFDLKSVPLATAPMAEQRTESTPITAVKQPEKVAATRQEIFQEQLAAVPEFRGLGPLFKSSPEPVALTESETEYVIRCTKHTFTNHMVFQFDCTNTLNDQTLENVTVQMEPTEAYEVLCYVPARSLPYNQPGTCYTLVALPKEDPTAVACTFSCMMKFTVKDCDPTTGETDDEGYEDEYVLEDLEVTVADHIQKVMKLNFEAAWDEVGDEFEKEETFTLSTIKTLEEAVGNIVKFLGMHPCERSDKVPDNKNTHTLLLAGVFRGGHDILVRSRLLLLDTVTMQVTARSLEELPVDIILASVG
UniProt P41240: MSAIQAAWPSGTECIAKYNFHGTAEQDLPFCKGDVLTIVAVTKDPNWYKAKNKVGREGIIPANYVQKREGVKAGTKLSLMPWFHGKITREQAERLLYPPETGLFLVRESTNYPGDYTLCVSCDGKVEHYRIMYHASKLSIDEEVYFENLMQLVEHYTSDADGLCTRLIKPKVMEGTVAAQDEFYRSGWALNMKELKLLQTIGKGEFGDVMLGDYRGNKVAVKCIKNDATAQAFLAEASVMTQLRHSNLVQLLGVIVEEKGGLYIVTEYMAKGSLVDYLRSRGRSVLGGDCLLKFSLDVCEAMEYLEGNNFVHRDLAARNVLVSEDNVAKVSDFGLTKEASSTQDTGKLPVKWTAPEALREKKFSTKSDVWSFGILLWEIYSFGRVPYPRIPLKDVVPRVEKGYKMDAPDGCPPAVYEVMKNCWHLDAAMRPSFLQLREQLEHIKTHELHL
UniProt Q96SW2: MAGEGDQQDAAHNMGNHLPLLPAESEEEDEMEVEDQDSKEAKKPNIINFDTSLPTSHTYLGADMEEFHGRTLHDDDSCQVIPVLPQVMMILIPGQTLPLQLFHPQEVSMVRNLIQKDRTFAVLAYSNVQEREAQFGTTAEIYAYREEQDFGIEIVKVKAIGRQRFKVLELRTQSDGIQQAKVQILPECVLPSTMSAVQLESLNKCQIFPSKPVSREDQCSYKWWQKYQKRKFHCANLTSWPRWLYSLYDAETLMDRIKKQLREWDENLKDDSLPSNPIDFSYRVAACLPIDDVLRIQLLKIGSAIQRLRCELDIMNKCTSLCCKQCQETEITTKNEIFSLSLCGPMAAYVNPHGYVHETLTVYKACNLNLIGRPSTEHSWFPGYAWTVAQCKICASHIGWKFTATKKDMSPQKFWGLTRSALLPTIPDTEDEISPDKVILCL
UniProt Q9H3G5: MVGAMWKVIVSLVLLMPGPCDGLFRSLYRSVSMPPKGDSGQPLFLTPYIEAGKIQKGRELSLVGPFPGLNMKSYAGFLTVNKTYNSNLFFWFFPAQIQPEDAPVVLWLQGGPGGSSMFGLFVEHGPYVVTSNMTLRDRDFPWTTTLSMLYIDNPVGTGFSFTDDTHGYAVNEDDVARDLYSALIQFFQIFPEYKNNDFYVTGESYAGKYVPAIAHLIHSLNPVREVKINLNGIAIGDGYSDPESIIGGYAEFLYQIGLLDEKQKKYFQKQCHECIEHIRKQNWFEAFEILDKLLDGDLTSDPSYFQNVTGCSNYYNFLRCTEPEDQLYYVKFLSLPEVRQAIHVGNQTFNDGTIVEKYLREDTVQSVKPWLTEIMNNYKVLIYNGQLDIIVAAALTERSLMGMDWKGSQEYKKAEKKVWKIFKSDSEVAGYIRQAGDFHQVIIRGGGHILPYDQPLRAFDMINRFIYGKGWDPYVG
UniProt O14548: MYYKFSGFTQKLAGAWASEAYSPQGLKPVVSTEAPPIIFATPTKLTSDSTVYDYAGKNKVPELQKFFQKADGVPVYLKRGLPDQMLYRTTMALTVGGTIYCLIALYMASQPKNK
UniProt Q99829: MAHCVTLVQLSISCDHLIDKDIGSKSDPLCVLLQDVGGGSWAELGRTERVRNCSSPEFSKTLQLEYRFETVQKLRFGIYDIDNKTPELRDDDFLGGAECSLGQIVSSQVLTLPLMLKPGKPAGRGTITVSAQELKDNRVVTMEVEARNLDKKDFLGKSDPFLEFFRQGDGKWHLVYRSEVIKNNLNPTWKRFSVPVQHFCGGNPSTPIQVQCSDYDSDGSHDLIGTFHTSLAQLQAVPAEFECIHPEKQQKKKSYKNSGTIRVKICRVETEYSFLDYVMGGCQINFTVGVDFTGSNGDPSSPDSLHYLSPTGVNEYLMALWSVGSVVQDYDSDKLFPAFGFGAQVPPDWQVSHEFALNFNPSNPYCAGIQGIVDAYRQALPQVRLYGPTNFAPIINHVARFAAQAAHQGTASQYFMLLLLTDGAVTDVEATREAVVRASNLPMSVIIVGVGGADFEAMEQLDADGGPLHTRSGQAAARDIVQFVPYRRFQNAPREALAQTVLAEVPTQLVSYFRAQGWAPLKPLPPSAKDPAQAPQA
UniProt Q9ULV4, whole entry, looked up: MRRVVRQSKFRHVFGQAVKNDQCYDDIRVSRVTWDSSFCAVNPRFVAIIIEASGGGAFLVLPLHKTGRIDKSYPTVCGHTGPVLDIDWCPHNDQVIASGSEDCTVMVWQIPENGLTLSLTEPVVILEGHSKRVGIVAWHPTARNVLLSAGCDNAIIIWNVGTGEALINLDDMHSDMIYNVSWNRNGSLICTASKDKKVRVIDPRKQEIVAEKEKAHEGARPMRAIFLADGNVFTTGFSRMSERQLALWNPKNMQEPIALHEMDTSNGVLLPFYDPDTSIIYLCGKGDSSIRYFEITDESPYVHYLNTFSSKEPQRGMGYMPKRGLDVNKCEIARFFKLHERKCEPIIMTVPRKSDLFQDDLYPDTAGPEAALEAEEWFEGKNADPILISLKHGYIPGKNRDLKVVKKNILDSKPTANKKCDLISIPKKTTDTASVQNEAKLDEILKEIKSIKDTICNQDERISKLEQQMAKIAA
UniProt O75390: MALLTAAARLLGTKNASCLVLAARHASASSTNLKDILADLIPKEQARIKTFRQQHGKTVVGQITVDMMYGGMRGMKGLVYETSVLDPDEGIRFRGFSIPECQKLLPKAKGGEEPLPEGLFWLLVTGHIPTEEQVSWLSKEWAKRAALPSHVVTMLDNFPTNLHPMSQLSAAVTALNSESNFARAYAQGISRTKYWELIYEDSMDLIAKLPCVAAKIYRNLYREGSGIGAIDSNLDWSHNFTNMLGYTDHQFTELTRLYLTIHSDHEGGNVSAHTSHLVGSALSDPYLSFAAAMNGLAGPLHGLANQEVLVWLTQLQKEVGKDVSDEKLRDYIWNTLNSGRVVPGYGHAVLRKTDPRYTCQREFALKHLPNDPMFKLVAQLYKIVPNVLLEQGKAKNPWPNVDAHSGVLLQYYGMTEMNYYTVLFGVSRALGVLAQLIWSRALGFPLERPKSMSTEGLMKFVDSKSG
UniProt P19784, whole entry, looked up: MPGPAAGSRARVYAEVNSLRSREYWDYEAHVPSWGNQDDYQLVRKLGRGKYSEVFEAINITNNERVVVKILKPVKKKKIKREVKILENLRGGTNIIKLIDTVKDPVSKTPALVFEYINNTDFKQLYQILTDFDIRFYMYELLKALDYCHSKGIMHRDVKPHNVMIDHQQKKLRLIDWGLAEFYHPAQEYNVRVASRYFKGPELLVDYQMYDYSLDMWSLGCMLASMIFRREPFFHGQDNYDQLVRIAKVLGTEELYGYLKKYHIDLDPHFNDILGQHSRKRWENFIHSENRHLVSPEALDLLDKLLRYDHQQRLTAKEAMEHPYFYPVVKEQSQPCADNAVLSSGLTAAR
UniProt P48730: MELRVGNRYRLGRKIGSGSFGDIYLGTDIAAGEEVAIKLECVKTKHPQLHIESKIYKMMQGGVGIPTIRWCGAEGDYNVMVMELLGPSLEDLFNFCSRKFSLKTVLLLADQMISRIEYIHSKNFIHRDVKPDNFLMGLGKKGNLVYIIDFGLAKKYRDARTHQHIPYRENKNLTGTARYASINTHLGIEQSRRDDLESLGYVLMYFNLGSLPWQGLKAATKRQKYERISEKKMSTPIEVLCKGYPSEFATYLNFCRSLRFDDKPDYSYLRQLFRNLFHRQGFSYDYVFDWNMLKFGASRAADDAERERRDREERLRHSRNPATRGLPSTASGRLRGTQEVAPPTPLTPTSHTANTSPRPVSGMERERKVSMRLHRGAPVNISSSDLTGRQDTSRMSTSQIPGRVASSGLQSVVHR

[2] = compound: CC1=C(C=C(C=C1)NC(=O)C2=CC(=CC=C2)N(C)C)NC(=O)C3=CC=C(C=C3)O
Summary of the method: as §1

[3] = compound: CC1=CC=C(C=C1)SC2=C3C=C(SC3=CN=C2)C(=O)N
Summary of the method: as §1

[4] = compound: CC1=NC(=CC=C1)C2=C(N=C(N2)C(C)(C)C)C3=CC4=NC=CN=C4C=C3
Summary of the method: as §1

[5] = compound: CCCCN(Cc1ccc(C(=O)NO)cc1)C(=O)Nc1ccccc1 [Nexturastat A]
Summary of the method: as §1

[6] = compound: CCCS(=O)(=O)Nc1ccc(F)c(C(=O)c2c[nH]c3ncc(-c4ccc(Cl)cc4)cc23)c1F [vemurafenib]
Summary of the method: as §1

[7] = compound: CCCS(=O)(=O)Nc1ccc(F)c(C(=O)c2c[nH]c3ncc(Cl)cc23)c1F
Summary of the method: as §1

[8] = compound: CCCc1cc(C)[nH]c(=O)c1CNC(=O)c1cc(-c2ccnc(N3CCN(C)CC3)c2)cc2c1cnn2C(C)C
Summary of the method: as §1

[9] = compound: CCN(CC)Cc1ccc2cc(COC(=O)Nc3ccc(C(=O)NO)cc3)ccc2c1 [givinostat]
Summary of the method: as §1

[10] = compound: CCN(CCCOc1ccc2c(Nc3cc(CC(=O)Nc4cccc(F)c4)[nH]n3)ncnc2c1)CCOP(=O)(O)O [barasertib]
Summary of the method: as §1

Target	log2 fold change [1]	log2 fold change [2]	log2 fold change [3]	log2 fold change [4]	log2 fold change [5]	log2 fold change [6]	log2 fold change [7]	log2 fold change [8]	log2 fold change [9]	log2 fold change [10]
COQ7 (UniProt Q99807)	inactive: 0.028	inactive: 0.086	inactive: 0.02	inactive: 0.018	inactive: -0.068	inactive: -0.002	inactive: -0.061	inactive: -0.034	inactive: -0.091	inactive: 0.023
CORO1A (UniProt P31146)	inactive: 0.046	inactive: -0.047	inactive: 0	inactive: -0.012	inactive: 0.021	inactive: 0.081	inactive: -0.023	inactive: 0	inactive: 0.052	inactive: 0.051
CPSF1 (UniProt Q10570)	inactive: -0.017	inactive: 0	inactive: -0.123	inactive: -0.083	active: 0.453	inactive: -0.115	inactive: 0.014	inactive: -0.005	inactive: 0.058	inactive: -0.024
COPS4 (UniProt Q9BT78)	inactive: -0.001	inactive: -0.019	inactive: 0.019	inactive: 0.033	inactive: -0.062	inactive: 0.049	inactive: 0.071	inactive: -0.037	inactive: -0.025	inactive: -0.002
CSNK1G3 (UniProt Q9Y6M4)	inactive: 0.104	inactive: -0.038	inactive: -0.005	inactive: 0	inactive: 0.184	inactive: -0.069	inactive: 0.037	inactive: 0.042	inactive: -0.002	inactive: -0.09
COMT (UniProt P21964)	inactive: 0.14	inactive: 0.009	inactive: -0.012	inactive: 0.019	inactive: 0.036	inactive: 0.011	inactive: 0.002	inactive: 0.005	inactive: 0.144	inactive: -0.006
COPS2 (UniProt P61201)	inactive: 0.009	inactive: 0	inactive: 0.017	inactive: 0.03	inactive: -0.063	inactive: 0.039	inactive: 0.03	inactive: 0.015	inactive: -0.034	inactive: -0.017
CREB1 (UniProt P16220)	inactive: -0.023	inactive: -0.003	inactive: -0.044	inactive: 0.018	inactive: -0.211	inactive: 0.022	inactive: -0.055	inactive: -0.045	inactive: -0.155	inactive: 0.005
COPG1 (UniProt Q9Y678)	inactive: 0.014	inactive: -0.016	inactive: 0.02	inactive: 0.028	inactive: -0.057	inactive: 0.01	inactive: 0.002	inactive: 0.001	inactive: -0.013	inactive: 0.043
CPD (UniProt O75976)	inactive: -0.017	inactive: 0	inactive: -0.01	inactive: -0.016	inactive: -0.001	inactive: -0.017	inactive: -0.021	inactive: -0.062	inactive: 0.016	inactive: 0.011
CSK (UniProt P41240)	active: 0.325	inactive: -0.091	inactive: -0.01	inactive: 0.019	inactive: -0.046	inactive: 0.072	inactive: 0.054	inactive: 0.034	inactive: 0.035	inactive: 0.004
CRKL (UniProt P46109)	active: -1.25	inactive: -0.029	inactive: 0.014	inactive: 0.019	inactive: -0.003	inactive: -0.018	inactive: -0.009	inactive: -0.024	inactive: 0.009	inactive: 0.01
CSNK2B (UniProt P67870)	inactive: -0.019	inactive: 0.021	inactive: -0.032	inactive: 0.066	inactive: -0.021	inactive: 0.026	inactive: 0.016	inactive: -0.034	inactive: -0.03	inactive: -0.008
CRBN (UniProt Q96SW2)	inactive: -0.009	inactive: 0.021	inactive: -0.047	inactive: -0.027	inactive: 0.003	inactive: -0.016	inactive: -0.021	inactive: -0.089	inactive: -0.044	inactive: 0.014
CPVL (UniProt Q9H3G5)	inactive: -0.044	inactive: 0.047	inactive: -0.003	inactive: 0.008	inactive: -0.103	inactive: -0.004	inactive: 0.005	inactive: -0.189	inactive: 0.082	inactive: 0.035
CPED1 (UniProt A4D0V7)	inactive: 0.012	inactive: 0.034	inactive: -0.062	inactive: -0.025	inactive: 0.164	inactive: -0.044	inactive: -0.071	inactive: -0.15	inactive: 0.051	inactive: -0.08
COX4I1 (UniProt P13073)	inactive: 0.043	inactive: 0.004	inactive: -0.009	inactive: -0.012	inactive: -0.012	inactive: 0.023	inactive: -0.033	inactive: -0.062	inactive: 0	inactive: -0.018
CRYZ (UniProt Q08257)	inactive: 0.007	inactive: -0.005	inactive: 0.02	inactive: 0.001	inactive: -0.033	inactive: -0.027	inactive: 0.004	inactive: -0.051	inactive: -0.009	inactive: -0.036
COX7A2L (UniProt O14548)	inactive: -0.035	inactive: -0.049	inactive: 0.024	inactive: 0.005	inactive: 0.009	inactive: -0.078	inactive: -0.044	inactive: -0.041	inactive: -0.018	inactive: 0.042
CPNE1 (UniProt Q99829)	inactive: -0.013	inactive: 0.027	inactive: 0.002	inactive: 0.018	inactive: -0.088	inactive: 0.015	inactive: 0.003	inactive: -0.089	inactive: 0.003	inactive: 0.008
CORO1C isoform 3 (UniProt Q9ULV4)	inactive: 0.004	inactive: 0	inactive: -0.016	inactive: 0.064	inactive: -0.044	inactive: 0.069	inactive: 0.038	inactive: 0	inactive: -0.112	inactive: -0.007
CS (UniProt O75390)	inactive: -0.026	inactive: -0.002	inactive: 0.014	inactive: 0.07	inactive: -0.125	inactive: 0.023	inactive: 0.033	inactive: 0	inactive: -0.041	inactive: 0.027
CSNK2A2 (UniProt P19784)	inactive: -0.037	inactive: 0.009	inactive: 0.021	inactive: 0.005	inactive: 0.004	inactive: 0	inactive: 0.08	inactive: -0.035	inactive: 0.03	inactive: 0.003
CSNK1D (UniProt P48730)	inactive: -0.001	inactive: 0.003	inactive: -0.033	inactive: -0.018	inactive: 0.117	inactive: 0.081	inactive: -0.047	inactive: 0.015	inactive: -0.254	inactive: -0.032
COPG2 (UniProt Q9UBF2)	inactive: 0.033	inactive: -0.038	inactive: -0.002	inactive: -0.01	inactive: 0.028	inactive: 0.011	inactive: 0.018	inactive: 0.016	inactive: -0.012	inactive: 0.025
CPSF6 isoform 2 (UniProt Q16630)	inactive: 0.054	inactive: 0.02	inactive: -0.027	inactive: 0.02	inactive: -0.042	inactive: 0.001	inactive: -0.069	inactive: 0.035	inactive: 0.048	inactive: -0.042
COPE (UniProt O14579)	inactive: 0.016	inactive: 0.013	inactive: 0.027	inactive: 0.023	inactive: 0.044	inactive: 0.052	inactive: 0.061	inactive: -0.045	inactive: 0.012	inactive: 0.034
COPRS (UniProt Q9NQ92)	inactive: -0.028	inactive: 0.045	inactive: -0.02	inactive: -0.078	inactive: 0.09	inactive: 0.039	inactive: -0.152	inactive: -0.05	inactive: 0.015	inactive: 0.08
CRTC2 (UniProt Q53ET0)	inactive: 0.055	inactive: 0.055	inactive: -0.051	inactive: 0.017	inactive: -0.03	inactive: 0.039	inactive: 0.031	inactive: 0.103	inactive: 0.181	inactive: 0.062
CPOX (UniProt P36551)	inactive: 0.042	inactive: 0.039	inactive: 0.042	inactive: -0.001	inactive: -0.12	inactive: -0.026	inactive: -0.01	inactive: -0.016	inactive: -0.117	inactive: -0.042

Some of the entries so far, bar-delimited:
Target | log2 fold change [1] | log2 fold change [2] | log2 fold change [3] | log2 fold change [4] | log2 fold change [5] | log2 fold change [6] | log2 fold change [7] | log2 fold change [8] | log2 fold change [9] | log2 fold change [10]
COX7A2L (UniProt O14548) | inactive: -0.035 | inactive: -0.049 | inactive: 0.024 | inactive: 0.005 | inactive: 0.009 | inactive: -0.078 | inactive: -0.044 | inactive: -0.041 | inactive: -0.018 | inactive: 0.042
CPNE1 (UniProt Q99829) | inactive: -0.013 | inactive: 0.027 | inactive: 0.002 | inactive: 0.018 | inactive: -0.088 | inactive: 0.015 | inactive: 0.003 | inactive: -0.089 | inactive: 0.003 | inactive: 0.008

Source: the supplement of paper PMC10849652
